Results are given in words; binding and its absence hold for the method and conditions named. In cells and extracts the contact can be indirect. Some binding calls cover weakened binding; strength is not graded here.

By UniProt entry, the sequences of proteins in these tests, tags left out.
UniProt Q02548: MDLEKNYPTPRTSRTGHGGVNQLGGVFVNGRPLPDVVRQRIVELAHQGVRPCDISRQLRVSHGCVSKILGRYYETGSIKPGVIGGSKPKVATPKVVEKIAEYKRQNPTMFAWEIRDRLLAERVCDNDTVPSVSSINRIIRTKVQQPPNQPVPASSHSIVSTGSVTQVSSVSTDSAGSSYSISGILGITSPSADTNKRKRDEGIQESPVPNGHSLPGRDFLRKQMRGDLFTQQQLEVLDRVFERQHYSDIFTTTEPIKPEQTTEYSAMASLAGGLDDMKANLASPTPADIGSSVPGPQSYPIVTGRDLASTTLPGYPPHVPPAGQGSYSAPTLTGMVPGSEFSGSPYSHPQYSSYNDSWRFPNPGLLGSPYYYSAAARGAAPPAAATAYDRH
UniProt Q03164: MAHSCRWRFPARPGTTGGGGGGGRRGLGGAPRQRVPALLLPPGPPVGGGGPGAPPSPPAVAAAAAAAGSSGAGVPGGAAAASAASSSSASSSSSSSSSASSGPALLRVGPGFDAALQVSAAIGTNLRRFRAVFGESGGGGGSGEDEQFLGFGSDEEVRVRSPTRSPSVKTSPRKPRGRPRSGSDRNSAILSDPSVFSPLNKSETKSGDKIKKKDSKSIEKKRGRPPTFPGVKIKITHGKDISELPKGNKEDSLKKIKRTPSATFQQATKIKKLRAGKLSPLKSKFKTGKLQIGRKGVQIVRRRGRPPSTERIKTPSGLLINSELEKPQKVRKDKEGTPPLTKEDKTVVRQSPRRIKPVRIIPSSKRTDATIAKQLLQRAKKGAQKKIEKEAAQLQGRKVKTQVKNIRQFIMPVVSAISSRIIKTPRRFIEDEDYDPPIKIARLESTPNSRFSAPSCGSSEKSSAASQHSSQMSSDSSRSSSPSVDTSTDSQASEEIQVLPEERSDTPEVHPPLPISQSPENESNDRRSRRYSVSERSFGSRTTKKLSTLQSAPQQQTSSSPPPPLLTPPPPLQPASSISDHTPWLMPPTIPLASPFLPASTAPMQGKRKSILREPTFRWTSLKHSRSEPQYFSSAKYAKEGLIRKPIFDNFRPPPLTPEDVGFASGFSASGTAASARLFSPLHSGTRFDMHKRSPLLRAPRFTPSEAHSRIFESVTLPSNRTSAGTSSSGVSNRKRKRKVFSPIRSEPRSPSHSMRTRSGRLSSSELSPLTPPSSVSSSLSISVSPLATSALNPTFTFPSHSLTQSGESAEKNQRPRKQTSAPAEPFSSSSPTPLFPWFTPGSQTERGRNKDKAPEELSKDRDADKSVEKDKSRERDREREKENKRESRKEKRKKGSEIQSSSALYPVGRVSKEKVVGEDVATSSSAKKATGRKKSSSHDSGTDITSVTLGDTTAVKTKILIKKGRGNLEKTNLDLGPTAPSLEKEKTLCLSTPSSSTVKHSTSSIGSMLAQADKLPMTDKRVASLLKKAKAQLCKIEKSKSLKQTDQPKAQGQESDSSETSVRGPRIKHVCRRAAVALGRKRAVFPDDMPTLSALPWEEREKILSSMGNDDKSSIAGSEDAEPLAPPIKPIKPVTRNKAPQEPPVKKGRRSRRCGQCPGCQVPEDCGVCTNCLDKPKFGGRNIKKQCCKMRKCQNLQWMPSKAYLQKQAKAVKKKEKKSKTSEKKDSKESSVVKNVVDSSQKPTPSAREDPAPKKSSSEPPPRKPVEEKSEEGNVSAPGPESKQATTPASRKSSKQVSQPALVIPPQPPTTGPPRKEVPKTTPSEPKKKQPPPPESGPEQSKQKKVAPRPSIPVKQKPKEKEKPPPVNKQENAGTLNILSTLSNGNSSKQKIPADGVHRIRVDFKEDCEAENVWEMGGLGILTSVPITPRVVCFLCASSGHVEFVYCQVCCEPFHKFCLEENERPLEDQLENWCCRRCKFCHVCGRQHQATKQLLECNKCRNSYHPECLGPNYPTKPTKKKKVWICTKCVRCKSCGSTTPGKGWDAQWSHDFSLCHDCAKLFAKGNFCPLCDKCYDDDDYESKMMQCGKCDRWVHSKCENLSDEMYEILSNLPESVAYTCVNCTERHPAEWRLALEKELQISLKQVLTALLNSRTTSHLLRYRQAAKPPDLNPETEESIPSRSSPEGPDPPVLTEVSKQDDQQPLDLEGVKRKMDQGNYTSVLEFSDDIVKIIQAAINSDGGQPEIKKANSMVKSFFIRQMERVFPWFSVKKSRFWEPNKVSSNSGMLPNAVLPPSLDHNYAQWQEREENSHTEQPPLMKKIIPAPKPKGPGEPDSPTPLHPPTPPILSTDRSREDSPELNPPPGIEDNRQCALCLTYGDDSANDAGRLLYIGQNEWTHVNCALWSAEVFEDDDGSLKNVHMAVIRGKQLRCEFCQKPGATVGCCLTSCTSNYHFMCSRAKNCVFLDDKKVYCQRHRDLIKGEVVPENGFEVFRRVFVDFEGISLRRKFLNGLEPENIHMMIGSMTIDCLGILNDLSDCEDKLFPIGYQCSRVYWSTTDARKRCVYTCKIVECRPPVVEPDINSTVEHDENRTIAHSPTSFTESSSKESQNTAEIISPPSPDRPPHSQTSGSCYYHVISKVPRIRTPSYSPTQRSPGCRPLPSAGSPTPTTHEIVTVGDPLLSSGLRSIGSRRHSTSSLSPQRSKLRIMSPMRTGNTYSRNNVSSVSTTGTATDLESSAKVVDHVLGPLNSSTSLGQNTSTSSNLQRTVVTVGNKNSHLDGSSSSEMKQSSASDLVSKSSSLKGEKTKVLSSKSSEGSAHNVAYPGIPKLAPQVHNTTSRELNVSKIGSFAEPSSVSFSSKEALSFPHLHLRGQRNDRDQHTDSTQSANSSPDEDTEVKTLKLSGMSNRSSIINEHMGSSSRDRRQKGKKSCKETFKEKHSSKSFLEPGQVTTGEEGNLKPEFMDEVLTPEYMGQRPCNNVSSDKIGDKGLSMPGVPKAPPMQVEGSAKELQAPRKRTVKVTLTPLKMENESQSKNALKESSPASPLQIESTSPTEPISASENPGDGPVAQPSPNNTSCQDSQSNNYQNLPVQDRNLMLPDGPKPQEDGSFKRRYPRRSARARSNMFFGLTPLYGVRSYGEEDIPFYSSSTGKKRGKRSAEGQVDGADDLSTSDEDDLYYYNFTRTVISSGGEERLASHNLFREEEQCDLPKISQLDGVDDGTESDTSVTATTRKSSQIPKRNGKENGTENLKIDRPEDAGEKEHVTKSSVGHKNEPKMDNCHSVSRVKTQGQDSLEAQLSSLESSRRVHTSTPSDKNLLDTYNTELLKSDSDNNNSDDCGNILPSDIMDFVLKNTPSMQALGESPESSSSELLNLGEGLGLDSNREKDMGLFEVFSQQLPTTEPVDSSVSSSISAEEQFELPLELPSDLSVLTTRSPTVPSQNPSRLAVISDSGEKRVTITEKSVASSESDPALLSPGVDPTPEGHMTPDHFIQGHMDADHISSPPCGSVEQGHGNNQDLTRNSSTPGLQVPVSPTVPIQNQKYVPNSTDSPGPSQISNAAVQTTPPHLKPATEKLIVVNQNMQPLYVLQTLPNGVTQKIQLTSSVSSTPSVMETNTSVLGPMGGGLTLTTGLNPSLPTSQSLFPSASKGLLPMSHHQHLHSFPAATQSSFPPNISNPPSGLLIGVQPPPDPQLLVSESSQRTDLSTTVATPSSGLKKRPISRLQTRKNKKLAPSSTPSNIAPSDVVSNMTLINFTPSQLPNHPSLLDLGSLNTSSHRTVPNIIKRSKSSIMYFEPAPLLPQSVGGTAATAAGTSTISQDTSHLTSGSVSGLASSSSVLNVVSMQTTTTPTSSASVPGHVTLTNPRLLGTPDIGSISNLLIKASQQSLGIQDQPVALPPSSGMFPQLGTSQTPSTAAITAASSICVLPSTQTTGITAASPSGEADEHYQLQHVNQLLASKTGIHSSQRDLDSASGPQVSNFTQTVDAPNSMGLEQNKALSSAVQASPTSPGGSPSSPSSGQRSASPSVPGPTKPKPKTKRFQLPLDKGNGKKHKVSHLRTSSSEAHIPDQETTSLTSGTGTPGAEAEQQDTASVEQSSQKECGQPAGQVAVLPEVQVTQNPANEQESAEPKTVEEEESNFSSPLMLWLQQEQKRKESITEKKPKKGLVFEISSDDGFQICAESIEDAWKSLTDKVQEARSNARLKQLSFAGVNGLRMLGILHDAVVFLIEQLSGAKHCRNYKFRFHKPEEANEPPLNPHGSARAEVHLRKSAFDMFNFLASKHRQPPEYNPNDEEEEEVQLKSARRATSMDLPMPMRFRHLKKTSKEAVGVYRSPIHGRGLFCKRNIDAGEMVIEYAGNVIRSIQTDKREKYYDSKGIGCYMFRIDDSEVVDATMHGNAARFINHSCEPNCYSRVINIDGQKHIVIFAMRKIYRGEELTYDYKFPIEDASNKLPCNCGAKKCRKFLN

Assay [1] has as its target PAX5 (human (endogenous in KIS-1, REH, GM12878, NALM6 and RAJI)) (UniProt Q02548). The assay is described as follows: co-IP; anti-PAX5 (sc-1974) co-IP from KIS-1 + EBF1 nuclear extracts (lysed with Benzonase), with and without doxycycline induction of EBF1 for 48 h; overnight at 4 °C, Dynabeads; Western blot. Background: In western blotting, separated proteins are transferred to a membrane and probed.

The target is the same in assay [2]. The assay can be described thus: co-IP; anti-PAX5 (sc-1974) co-IP from REH nuclear extract; Western blot.
For assay [3] the target is unchanged. The assay can be described thus: co-IP; anti-PAX5 (sc-1974) co-IP from GM12878 nuclear extract; Western blot.

On to “KMT2A, the catalytic component of MLL (from UniProt Q03164 1-3969)”, for which, in assay [1], the binding result was “binds”.

B1: MEN1 (protein, UniProt O00255 1-610)
chain: MGLKAAQKTLFPLRSIDDVVRLFAAELGREEPDLVLLSLVLGFVEHFLAVNRVIPTNVPELTFQPSPAPDPPGGLTYFPVADLSIIAALYARFTAQIRGAVDLSLYPREGGVSSRELVKKVSDVIWNSLSRSYFKDRAHIQSLFSFITGTKLDSSGVAFAVVGACQALGLRDVHLALSEDHAWVVFGPNGEQTAEVTWHGKGNEDRRGQTVNAGVAERSWLYLKGSYMRCDRKMEVAFMVCAINPSIDLHTDSLELLQLQQKLLWLLYDLGHLERYPMALGNLADLEELEPTPGRPDPLTLYHKGIASAKTYYRDEHIYPYMYLAGYHCRNRNVREALQAWADTATVIQDYNYCREDEEIYKEFFEVANDVIPNLLKEAASLLEAGEERPGEQSQGTQSQGSALQDPECFAHLLRFYDGICKWEEGSPTPVLHVGWATFLVQSLGRFEGQVRQKVRIVSREAEAAEAEEPWGEEAREGRRRGPRRESKPEEPPPPKKPALDKGLGTGQGAVSGPPRKPPGTVAGTARGPEGGSTAQVPAPTASPPPEGPVLTFQSEKMKGMKELLVATKINSSAIKLQLTAQSQVQMKKQKVSTPSDYTLSFLKRQRKGL
Turning to B1, the binding result in assay [1], in assay [2] and in assay [3] was “binds” in each case.

Source of the values: PMC7810865.
